Measured values from the supplement of paper PMC12578635.
The list shows a part of the results. Cut-off read from the data, not from the text of the source: active = 150% or more and inactive = the rest. Single values are uncertain, as repeats are few or missing.

Tested on: Staphylococcus aureus JE2-lux inside RAW 264.7 macrophages
Assay: intracellular bacterial bioluminescence relative to DMSO vehicle; higher = higher intracellular bacterial metabolic activity
Conditions: 10 µM; treatment time 4 h; gentamicin 50 µg/ml

Intracellular bacterial bioluminescence, inactive:
COc1ccc(OC)c(S(=O)(=O)NC(=N)NCCc2ccccc2OC)c1 77%, O=C1c2ccccc2C(=O)N1CNc1ccccc1Cl 93.8%, COC(=O)c1ccccc1NC(=O)CSc1nc(N)cc(=O)[nH]1 90.3%, Cc1cc(-c2csc(S(=O)(=O)N3CCC(Cc4ccccc4)CC3)c2)on1 64.5%, Cc1nc2cccc(NC(=O)COc3ncnc4ccccc34)c2[nH]1 19%, CN(Cc1ccccc1)C(=O)CCn1cnc2c(-c3ccc(F)cc3)noc2c1=O 66.3%, S=C(Nc1ccccc1)N1CCC(n2cnc3ccccc32)CC1 124%, CCn1c(=O)c(N2CCN(C(=O)COc3ccc(F)cc3)CC2)c(C)n(-c2ccccc2)c1=O 133%, N#Cc1c(NC(=O)CCSCCC(=O)Nc2sc3c(c2C#N)CCC3)sc2c1CCC2 125%, O=C(NCc1cccc(F)c1)c1cnn2c(=O)c3c([nH]c12)CCCC3 107%, O=C(NCc1ccc(F)cc1)C(=O)c1c[nH]c2ccccc12 62.5%, CCOC(=O)c1sc2nc(NC(=O)c3nc4ccccc4s3)sc2c1C 90.8%, CCc1nc2ccc(C(=O)NCc3n[nH]c4c3CCCC4)cc2nc1CC 66.6%, COc1ccc(C(=O)C2CCN(CC(=O)Nc3ccc4c(c3)OCCO4)CC2)cc1 111%, CCSc1nc2c(c(=O)[nH]1)C(c1cccc(Br)c1)C(C(=O)OC(C)C)=C(C)N2 (stereo not drawn) 89.3%, Cc1nc(C#N)c(N/N=C/C=C/c2ccccc2)o1 76.2%, CCn1c(N2CCN(CC(=O)Nc3c(C)cccc3C)CC2)nc2ccccc21 145%, O=C(CSc1ncnc2c1cnn2-c1ccc(Cl)cc1)Nc1ccc2c(c1)OCCO2 89.4%, Cc1ccc2c(cnn2C(=O)NCCc2ccccc2)c1 58.3%, Cc1ccc(Cn2c(CCCC(=O)NCCN(C)C)nc3cccnc32)cc1 106%, CCOc1ccccc1NC(=O)c1nn(C)c(C(F)(F)F)c1Cl 115%, Cc1ccc(C)c(N2CCN(c3c4c(nc5nc(C)nn35)CCCC4)CC2)c1 46.9%, c1ccn(-c2ncnc3sc4c(c23)CCCC4)c1 94.1%, O=C(CN1C(=O)c2cccc3cccc(c23)C1=O)Nc1nc2ccccc2s1 104%, Cc1c(Cl)ccc2sc(N3CCN(C(=O)/C=C/c4cccc([N+](=O)[O-])c4)CC3)nc12 77.8%, O=C(NCc1ccccn1)C(=O)NCC(c1cccs1)N1CCc2ccccc21 (stereo not drawn) 77.9%, CC(=O)N(Cc1cccnc1)c1nc2cc3c(cc2s1)OCCO3 86.1%, Cc1ccc(C)c(NC(=O)Cn2c(=O)n(Cc3ccco3)c(=O)c3sc4ccccc4c32)c1 104%, CCCSc1nc2c(c(=O)[nH]1)C(c1ccc(C)o1)C1=C(CCCC1=O)N2 (stereo not drawn) 101%, COC(=O)c1c(-c2ccc(F)cc2)noc1Nc1cc(C)ccc1OC 106%, Cn1c(=O)c2c(nc3oc(-c4ccc(F)cc4)cn32)n(C)c1=O 100%, O=C1CCc2cc(S(=O)(=O)N3CCCC(CN4CCCC4)C3)ccc2N1 (stereo not drawn) 146%, CCCC1N=C2c3ccccc3N=C(SC(C)C(=O)Nc3ccccc3)N2C1=O (stereo not drawn) 96.2%, COc1ccc2c(c1OC)C(=O)N(c1n[nH]c(SC)n1)C2=O 81.3%, COc1ccc([N+](=O)[O-])cc1/C=C(\C#N)c1nc(-c2cc3ccccc3oc2=O)cs1 114%, CCNC(=O)c1cc2c(=O)n3ccccc3nc2n(Cc2ccc(OC)cc2)c1=N 96.2%, CCN(CC)C(=O)c1sc2nc3cc(C)c(C)cc3cc2c1N 80%, CCOc1cc(-c2nc3ccc(C)cn3c2NCC2CCCO2)ccc1O (stereo not drawn) 85.8%, CCc1cc(Sc2nnc(NC(=O)Nc3cccc(Cl)c3)s2)n2ncnc2n1 93.1%, Cc1nc2ccc(NC(=S)NC(=O)CN3C(=O)CCC3=O)cc2s1 65.8%, CCOC(=O)c1sc2nc(C)nc(Oc3cccc(OC)c3)c2c1C 66.7%, COc1ccc2cc(C(=O)N3CCN(c4cc(C)nc(C)n4)CC3)n(C)c2c1 108%, CC1C(=O)N2CCCc3cc(NC(=O)C(=O)NCCC4=CCCCC4)cc1c32 (stereo not drawn) 105%, CCCCOC(=O)c1ccc(NC(=O)c2cc(-c3ccc4c(c3)OCCO4)on2)cc1 104%, Cn1c(=O)[nH]c2cc(-c3noc(CNC(=O)c4ccccc4)n3)ccc21 106%, CC(=O)Nc1cccc(NC(=O)C(=O)Nc2ccc3c(c2)N(C(=O)C2CC2)CCC3)c1 55%, COc1ccc(C(=O)N2c3cc(CNC(=O)c4cc(CC(C)C)on4)ccc3CC2C)cc1 (stereo not drawn) 52.1%, Cc1csc(SCc2cc(=O)c(OC(=O)Cc3ccc(F)cc3)co2)n1 84.1%, Cc1nc2ccccc2c(=O)n1-c1ccc(NS(=O)(=O)c2ccc3c(c2)OCCO3)cc1 125%, CCOc1ccc(N2CCn3c2nc2c3c(=O)n(CC(=O)O)c(=O)n2C)cc1 110%, O=C(CSC1=NS(=O)(=O)c2cc(F)ccc2N1)NCc1ccc2c(c1)OCO2 139%, COc1ccc(Cc2nnc3sc(SCC(=O)Nc4ccccc4)nn3c2=O)cc1OC 84.5%, CCOc1ccc(CCNC(=O)CN2c3ccccc3S(=O)(=O)c3ccccc32)cc1OCC 75.2%, CCOC(=O)C1CCCN(c2ncnc3scc(-c4ccc(Cl)cc4)c23)C1 (stereo not drawn) 63.7%, Cn1c(=O)c2c(nc3n2CC(C(C)(C)C)=NN3CCN2CCOCC2)n(C)c1=O 132%, COc1cccc(-c2noc(NCCC(C)C)n2)c1 106%, Cc1ccc(-n2nnc3c(SCC(=O)N4CCOCC4)ncnc32)cc1 107%, CCOC(=O)c1csc(-n2nc3c(c2C(F)(F)F)CCCCC3)n1 44.6%
